In US8580579B2, “Hydrophilic and lipophilic rhodamines for labelling and imaging” (Max-Planck-Gesellschaft zur Foerderung der Wissenschaften …, priority 2009, dated 2013):
Entries after “also recorded” stand apart in the source; their conditions may differ.

Columns and labels:
biological membranes = assay: Integration of dyes into biological membranes
Text: With respect to biological labelling, this is the most important advantage of these dyes over the lipophilic fluorescent stains with similar spectral properties (e.g. Atto 647N).

[1] = system: formaldehyde-fixed Ptk2 cells; assay: Immunostaining of the TOM complex, confocal and STED imaging; assay type: cell-based; conditions: for background in immunostaining (unspecific binding): antibody conjugates
Text: To evaluate the performance of the new dyes in optical microscopy, the mitochondrial entry gate—the TOM complex—was stained in formaldehyde-fixed Ptk2 cells with a Tom20 specific primary antibody (Santa Cruz Biotechnology, Santa Cruz, Calif., USA). A fluorescent antibody labelled with the compound 6 was applied as a secondary marker (FIG. 3, lower panels). For comparison, the same secondary antibodies were labelled with Atto 647N fluorophore and used for imaging of the TOM complex (FIG. 3, upper panels). Imaging was performed with the STED microscope described recently [B. Harke, J. Keller, C. K. Ullal, V. Westphal, A. Schönle, S. W. Hell, Opt. Expr. 2008, 16, 4154-4162].

[2] = Microinjection tests with glass capillaries; conditions: 0.5 μM solution in water or PBS
Experimental: The commercial dye Atto 647N is preferred in many fluorescence microscopy studies, especially when high excitation powers are used. […] For live cell studies, it is desirable to introduce aqueous solutions of the dye (e.g. coupled to antibodies) via microinjection into cells. […] These tests were performed with a ˜0.5 μM solution of Atto 647N in water or PBS, filled into microinjection pipettes (Femtotips®, Eppendorf, Hamburg, Germany and home made capillaries). The capillaries got blocked by the dye and no fluid could be injected, even under the maximally available pressure of ˜4000 hPa. The walls, but not the interior of the capillaries brighten up when irradiated. On the other hand, if 50% (v/v) ethanol is used as solvent, a 0.5 μM solution is injectable, but this solvent system is not compatible with live cells.
Thereafter, the suitability of the dye 6 for microinjection was tested under the same conditions: A 0.5 μM solution of the dye in water was filled into the capillary tubes (Femtotips®). Neither the walls of the capillaries lit up noticeably upon fluorescence excitation, nor were the capillaries blocked: upon application of a normal injection pressure (˜90 hPa), the flow was not impeded.

[3] = system: mammalian cells (cell line U2OS); assay: Bleaching resistance of antibody-coupled dyes, Tom20 staining; assay type: cell-based
Text: The bleaching resistance of rhodamine 6 and the commercial dye Atto647N were compared in (fixed) biological samples. Both dyes (as NHS esters) were coupled to goat-anti-rabbit antibodies (Dianova, Hamburg, Germany), and these were used for staining the mitochondrial protein Tom20 in mammalian cells (cell line U2OS). A Tom20 specific antibody (from rabbit) (Santa Cruz Biotechnology, Heidelberg, Germany) was used as a primary label. From 50 up to 100 frames were imaged from the same region. The bleaching stability was determined by exponential fits to the fluorescence intensity in selected regions of interest.

[4] = system: fixed human cells (cell line U373); assay: Bleaching resistance and fluorescence depletion, β-tubulin staining; assay type: cell-based; conditions: for bleaching resistance, 6 compared with 6D: 635 nm excitation and STED conditions, coupled to sheep-anti-mouse antibodies; for depletion efficiency (STED efficiency) as function of depletion beam power: excitation power 2.7 μW
Experimental: The bleaching resistances of the compounds 6 and 6D were compared in fixed human cells (cell line U373). The NHS esters of both dyes were coupled to sheep-anti-mouse antibodies (Dianova, Hamburg, Germany) and used to stain β-tubulin via anti-β-tubulin antibodies from mouse (Sigma, Munich, Germany). Up to 100 frames were imaged from the same region and the bleaching stability was determined by exponential fits to the fluorescence intensity in selected regions of interest.
The depletion of the fluorescence as a function of the depletion beam intensity was measured for the dyes 6 and 6D in the same samples of U373 cells (FIG. 2). Excitation power was 2.7 μW.

Row | Structure (SMILES) | integration into biological membranes (biological membranes) | background in immunostaining (unspecific binding) [1] | full width at half maximum of effective point spread function in STED images ([1]; small structures) | suitability of aqueous dye solution for microinjection [2] | bleaching stability relative to Atto 647N ([3]; excitation 635 nm followed by depletion at 750 nm (STED), dye coupled to goat-anti-rabbit antibodies) | photostability, lower than that of Atto 647N ([3]; excitation with 635 nm light alone, without depletion at 750 nm) | bleaching resistance, 6 compared with 6D [4] | depletion efficiency (STED efficiency) as function of depletion beam power [4]
1 | CN(CCC(=O)O)C(=O)c1c(F)c(F)c(F)c(F)c1C1=c2cc3c4c(c2Oc2c1cc1c5c2CCCN5C(C)(C)C=C1CS(=O)(=O)O)CCC[N+]=4C(C)(C)C=C3CS(=O)(=O)[O-] [Compound 6] | do not integrate into biological membranes | low cellular and mitochondrial background; also recorded: very low background | below 40 nm | suitable for microinjections | comparable | ca. 8 times | vary stronger between samples than between the undeuterated and deuterated substances | No differences; also recorded: behave very similarly
2 | [2H]C1=C(C([2H])([2H])S(=O)(=O)O)c2cc3c(c4c2N(CCC4)C1(C([2H])([2H])[2H])C([2H])([2H])[2H])Oc1c2c4c(cc1=C3c1c(F)c(F)c(F)c(F)c1C(=O)N(C)CCC(=O)ON1C(=O)CCC1=O)C(C([2H])([2H])S(=O)(=O)[O-])=C([2H])C(C([2H])([2H])[2H])(C([2H])([2H])[2H])[N+]=4CCC2 [Compound 9D] | – | low background; also recorded: very low background | – | – | – | – | – | –
3 | CN(CCC(=O)ON1C(=O)CCC1=O)C(=O)c1c(F)c(F)c(F)c(F)c1C1=c2cc3c4c(c2Oc2c1cc1c5c2CCCN5C(C)(C)C=C1CS(=O)(=O)O)CCC[N+]=4C(C)(C)C=C3CS(=O)(=O)[O-] [Compound 9] | – | low background; also recorded: very low background | – | – | – | – | – | –
4 | [2H]C1=C(C([2H])([2H])S(=O)(=O)O)c2cc3c(c4c2N(CCC4)C1(C([2H])([2H])[2H])C([2H])([2H])[2H])Oc1c2c4c(cc1=C3c1c(F)c(F)c(F)c(F)c1C(=O)N(C)CCC(=O)O)C(C([2H])([2H])S(=O)(=O)[O-])=C([2H])C(C([2H])([2H])[2H])(C([2H])([2H])[2H])[N+]=4CCC2 [Compound 6D] | do not integrate into biological membranes | very low background | – | suitable for microinjections | – | – | vary stronger between samples than between the undeuterated and deuterated substances | No differences; also recorded: behave very similarly
5 | CC[N+]1=c2cc3c(cc2C(C)CC1(C)C)=C(c1ccccc1C(=O)N(C)CCCC(=O)O)c1cc2c4c(c1C3(C)C)CCCN4CCC2.[O-][Cl+3]([O-])([O-])[O-] (mixture of isomers) [Atto 647N] | – | considerable background | – | impossible | – | – | – | –
